Publication PMC7819943, “Rice protein-binding microarrays: a tool to detect cis-acting elements near promoter regions in rice”
Some of the results follow.

The chains behind the UniProt entries cited, without tags or fusion partners.
UniProt Q0JBA9, entry or part of it: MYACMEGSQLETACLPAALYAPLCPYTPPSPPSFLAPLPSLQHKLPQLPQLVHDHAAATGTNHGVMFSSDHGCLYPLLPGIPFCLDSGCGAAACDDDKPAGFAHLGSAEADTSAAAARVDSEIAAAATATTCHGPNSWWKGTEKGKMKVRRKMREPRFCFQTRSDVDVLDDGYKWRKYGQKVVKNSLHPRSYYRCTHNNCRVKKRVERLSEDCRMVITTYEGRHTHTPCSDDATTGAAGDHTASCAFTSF

The sequences below were run against OsWRKY34 (Oryza sativa, UniProt Q0JBA9 1-250) (assay: protein-binding microarray (RPBM); PBS, 2% BSA, 51.3 ng/ul salmon testes DNA, 50 uM zinc acetate, 200 nM TF, 25 C, 1 h; high values mean tight binding). Settings: protein: recombinant; tags: N-terminal polyhistidine and DsRed monomer fusion (pET32a); label: CyDye5-dUTP incorporated in the synthesized complementary strand; 3' TTTTT single-stranded linker to array surface; dsDNA, one strand shown.
How it was run: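 Ni–NTA purification followed expression in E. coli BL21-CodonPlus of transcription factors fused N-terminally to a polyhistidine tag and DsRed. At 200 nM in PBS with 2% BSA, salmon testes DNA and 50 µM zinc acetate, the protein was incubated for 1 h at 25 °C with a custom Agilent array that had been primer-extended with Cy5-dUTP and blocked with 2% BSA. After washing, the array was read on an Axon 4000B scanner. The binding signal is per-feature fluorescence intensity in arbitrary units.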
In the case of “ACCTTCTAGTATTCTCCCGTCCAGCGCATCTGGACCGTCCCGGAGTCACCTAGTGCAG”, the binding signal is reported as 8310 fluorescence intensity (a.u.). With “AAATCGTTTCTCAAGTCATTCAGGCATACTCACATCGCACCGGAGTCACCTAGTGCAG” the binding signal was 8160 fluorescence intensity (a.u.). With “TCTCTCTTTCTGGGCGAGGCAAAGCGGTGGGTGCAGAGGGCGGAGTCACCTAGTGCAG” the binding signal was 9370 fluorescence intensity (a.u.). With “AAATGCTCTTTCTAAAACTCATTTCCTTGGCAAACGCATACGGAGTCACCTAGTGCAG” the binding signal was 8940 fluorescence intensity (a.u.). For “GTGTTGGTTGACATCTCGGAGGATTTGGGTTTGAATTCAACGGAGTCACCTAGTGCAG”, the binding signal was 8960 fluorescence intensity (a.u.). With “GAGTTATATTTTTCTTCCTTGGTTGTTTTTTTTCTCTCCTCGGAGTCACCTAGTGCAG” the binding signal was 8520 fluorescence intensity (a.u.). In the case of “CAACCGCCGGCCACCTCTCTCTCCCAATTATCCTCTCCTCCGGAGTCACCTAGTGCAG”, the binding signal is reported as 9240 fluorescence intensity (a.u.). For “GATTTATGACTGGATTTCACTCGCGGAAGATAGTACGTTTCGGAGTCACCTAGTGCAG”, the binding signal was 8640 fluorescence intensity (a.u.). “CACACCCAAAGTAAAGCCCTATATCGGTCTCTTCATTCTCCGGAGTCACCTAGTGCAG” was tested, and the binding signal was 10600 fluorescence intensity (a.u.). With “GCGTGTCATTGCGCGGCCGCATCATTTCGTTTTTAAATATCGGAGTCACCTAGTGCAG” the binding signal was 8270 fluorescence intensity (a.u.). “ATAGATTTTCTTCCACCCAGGCATGCTTTTTTCTCAGACTCGGAGTCACCTAGTGCAG” was tested, and the binding signal was 8660 fluorescence intensity (a.u.). For “CGACGTCGGTGGGTGGGTTGCCCTCGCCGGCTTGCCGCCTCGGAGTCACCTAGTGCAG”, the binding signal was 9020 fluorescence intensity (a.u.). With “AGATCTTTGACCTTACTAGAACTTGTTTGGTGGGGTTCCACGGAGTCACCTAGTGCAG” the binding signal was 10600 fluorescence intensity (a.u.). For “GATTCCAACTTTCGATCGAGAGCCTCGCCGTCGATTCCCCCGGAGTCACCTAGTGCAG”, the binding signal was 8760 fluorescence intensity (a.u.). “CTGCTGCCGCCGCCTCCTGGCCGCCGCCGCGGCGAGCGCGCGGAGTCACCTAGTGCAG” was tested, and the binding signal was 8280 fluorescence intensity (a.u.). With “TATTACTACCTTCATATTTTAATGTATGACGCCGTTGACTCGGAGTCACCTAGTGCAG” the binding signal was 11900 fluorescence intensity (a.u.). In the case of “ATCAATTCTTCTTTTTTGTGTTTTTCCCTTTCCCTTTTTTCGGAGTCACCTAGTGCAG”, the binding signal is reported as 10600 fluorescence intensity (a.u.). With “ACCCTGGAAAAATCCCCTTTTCCGTCCGTCCTAGTCCAGTCGGAGTCACCTAGTGCAG” the binding signal was 8380 fluorescence intensity (a.u.). In the case of “AACGTTACCACCGCGTTTTGGTGTCATTTTCAATGCTGCTCGGAGTCACCTAGTGCAG”, the binding signal is reported as 8610 fluorescence intensity (a.u.). “GCCTGCGCCGATCCCCATCCATTCCGCGAGCGAGCGAGTGCGGAGTCACCTAGTGCAG” was tested, and the binding signal was 8160 fluorescence intensity (a.u.). “CTTTGCGTCTCCTCCCCTTTCTAATCCACTTTTTATTTTTCGGAGTCACCTAGTGCAG” was tested, and the binding signal was 9730 fluorescence intensity (a.u.). In the case of “GTCCATCCACAATACTGAAGTTAGATGCATTTAACTTTTTCGGAGTCACCTAGTGCAG”, the binding signal is reported as 8970 fluorescence intensity (a.u.). With “ATCCGCCCCTGCTTCTCAATTTTTAACCCGGACATGTTTGCGGAGTCACCTAGTGCAG” the binding signal was 8570 fluorescence intensity (a.u.). For “GCCACCTCCTCCTCTATTTTGTTCTCCTCCGCCATCGCCACGGAGTCACCTAGTGCAG”, the binding signal was 11400 fluorescence intensity (a.u.). For “GCGTATCCGTATTTGGTGGAGTAGGGGAACGGACTCGTGACGGAGTCACCTAGTGCAG”, the binding signal was 9600 fluorescence intensity (a.u.). “CGGTGACCTCAGTTTGATATCGTGTTGAAACCGCTCTTCTCGGAGTCACCTAGTGCAG” was tested, and the binding signal was 8220 fluorescence intensity (a.u.). “TAATATATGGGATTAGGTGATCGAGAAAAATCCATCGTGACGGAGTCACCTAGTGCAG” was tested, and the binding signal was 9000 fluorescence intensity (a.u.). In the case of “GAAAATCCTTGTTCTTACCCATCCTTACTCACACTCTGTTCGGAGTCACCTAGTGCAG”, the binding signal is reported as 10200 fluorescence intensity (a.u.). “TTAGGTGCCTGCAGCAGAGCCTCTTACTGTTTCTCATGAACGGAGTCACCTAGTGCAG” was tested, and the binding signal was 8450 fluorescence intensity (a.u.). In the case of “GGACCACACCAATCTATCTAGTTTAGTGCTCATTTGTCATCGGAGTCACCTAGTGCAG”, the binding signal is reported as 8130 fluorescence intensity (a.u.). “TATGCCTTCCACTTCCACGTCAGCTTTCCCACACTGGTCTCGGAGTCACCTAGTGCAG” was tested, and the binding signal was 8280 fluorescence intensity (a.u.). For “GCACGCACTCATCGCCATCGCCTGCAATCCGACAAGTTCTCGGAGTCACCTAGTGCAG”, the binding signal was 10300 fluorescence intensity (a.u.). In the case of “CTTCAACACAGTCTTTGAGATGCTACTTTGACTAGAAATACGGAGTCACCTAGTGCAG”, the binding signal is reported as 9260 fluorescence intensity (a.u.). “CCCGCAGATTGGATTGGATTGGGTTGGATTGGATTGGATGCGGAGTCACCTAGTGCAG” was tested, and the binding signal was 10300 fluorescence intensity (a.u.). “TCCCCAACGATCTCATTCTCTTGCTGTCTTGCGTGTTCATCGGAGTCACCTAGTGCAG” was tested, and the binding signal was 8730 fluorescence intensity (a.u.). “CATCCTTGGCACTACTGTCATTTTACATCCAGCCTAAGTGCGGAGTCACCTAGTGCAG” was tested, and the binding signal was 10700 fluorescence intensity (a.u.). For “ACAGTCAGTCTCATTACTGGAGTTGCATGCCTGCAATCAACGGAGTCACCTAGTGCAG”, the binding signal was 8060 fluorescence intensity (a.u.). For “TCTGGCCTCTGGGATTATTCCTACTAACTTCATATTTTAACGGAGTCACCTAGTGCAG”, the binding signal was 8970 fluorescence intensity (a.u.). With “AAAAAGTCAACAGCATCAAATATTTTGGGGTGGAGGGAGTCGGAGTCACCTAGTGCAG” the binding signal was 10400 fluorescence intensity (a.u.). In the case of “TTCTGCACTTCTGCTTCACCCCGGCTGACATTGCACACCGCGGAGTCACCTAGTGCAG”, the binding signal is reported as 9020 fluorescence intensity (a.u.). For “GGCCGGTTGATTGTGTGGTTGGTGAGGGCGCGAGCTCTGCCGGAGTCACCTAGTGCAG”, the binding signal was 9020 fluorescence intensity (a.u.). “GGCCCAATATAGGCCTTGTTTGGGTGGGCATCAATCTAGACGGAGTCACCTAGTGCAG” was tested, and the binding signal was 8830 fluorescence intensity (a.u.).
